Laboratory results published in PubChem BioAssay AID1347075 (National Center for Advancing Translational Sciences (NCATS), 2019).
The campaign covered roughly 400,000 compounds. About 5,500 (1.4%) were called active. Inconclusive means that the source gave no clear call. Such entries were picked first, then a sample of the others. Calls come from the whole dose curve; as a rule, active = well fitted cell-killing curve with a large enough effect; inconclusive = small, poorly fitted or top-dose-only effect, or effect the other way; inactive = flat fitted curve, though single readings scatter. Potencies of inconclusive entries are doubtful fits and often do not repeat.
% is set by controls: 0 for no effect and ±100 for the full control effect; potency is the fitted concentration of half-maximal effect.

Test: qHTS assay for MDR1-selective chemotherapeutics: Primary screen using the parental adenocarcinoma cell KB-3-1; note: nearly all actives have a fitted effect of over 60% in size
Conditions: KB-3-1 viability, CellTiter-Glo ATP luminescence, 72 h; activity change, negative = cytotoxic: at 46.1 µM (top of the series)
Method in brief: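 Cytotoxicity measured as CellTiter-Glo luminescence after 72 h at 37 C. Compound titrations were pinned onto drug-naive KB-3-1 parental adenocarcinoma cells grown in DMEM with 10% FBS, and normalized data fitted to concentration-response curves.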
In the case of `O=S(=O)(c1ccc(Br)cc1)N1CCN(c2cc(-c3ccccc3)nc3ncnn23)CC1`, the Potency was inconclusive: 9.2 µM [cytotoxic, partial curve, poor fit]. With `O=C(NCc1cccs1)C(=O)c1cn(CC(=O)N2CCCC2)c2ccccc12` the Potency was inconclusive: 3.66 µM [rising, partial curve, poor fit]. In the case of `Cc1cccc(N2CCN(C(=O)C(Cc3ccccc3)n3cccc3)CC2)c1C` (centres undefined), the Potency was inconclusive: 25.9 µM [cytotoxic, single point]. For `COC(=O)c1cc(=O)n(Cc2ccc(OC)c(OC)c2)c(=Nc2ccc(F)cc2)s1`, the Potency was active: 20.6 µM. For `Cc1ccc(C)c(Cn2c(C(C)NC(=O)c3ccc(F)cc3)nc3ccccc32)c1` (centres undefined), the Potency was “inactive”. With `Cc1cc(C)c(S(=O)(=O)c2cccc(Cl)c2)c(Cl)n1` the activity change, negative = cytotoxic was inconclusive: 2.72%. With `Cc1c2cnn(CC(=O)N3CCN(c4ccccc4)CC3)c(=O)c2c(C)n1Cc1ccc(F)cc1` the Potency was “inactive”. For `O=C(Nc1ccccc1N1CCOCC1)c1ccccc1NS(=O)(=O)c1ccc(F)c(F)c1`, the Potency was inconclusive: 25.9 µM [cytotoxic, partial curve, poor fit]. For `O=S(=O)(c1ccc(Cl)nc1)N(Cc1ccccc1)Cc1ccccc1`, the Potency was “inactive”. With `O=C(CNC(=O)c1ccccc1Br)N/N=C/c1ccccc1O` the Potency was inconclusive: 29.1 µM [cytotoxic, single point]. With `COc1cc(OC)cc(C(=O)NC2CCCN(Cc3ccc(Cl)cc3)C2)c1` (centres undefined) the Potency was inconclusive: 23.1 µM [cytotoxic, single point]. With `Fc1cccc2sc(Nc3nnc(-c4ccco4)o3)nc12` the Potency was inconclusive: 11.6 µM [cytotoxic, partial curve, poor fit]. In the case of `CC(NC(=O)c1cc(COc2ccc3ncccc3c2)on1)c1ccc(F)cc1` (centres undefined), the Potency was inconclusive: 5.17 µM [cytotoxic, full curve]. In the case of `COc1ccc(C=Cc2ccc3ccccc3n2)c(OC)c1`, the Potency was inconclusive: 14.6 µM [cytotoxic, single point]. With `Cc1nnc(NC(=O)c2sc3ccccc3c2Cl)s1` the Potency was “inactive”. In the case of `CC12CCC(C(=O)N/N=C/c3ccc(O)cc3O)(OC1=O)C2(C)C` (centres undefined), the Potency was inconclusive: 2.31 µM [cytotoxic, partial curve, poor fit]. With `COc1ccc(NC(=S)Nc2ccc(OCc3ccccc3)cc2)c(OC)c1` the Potency was inconclusive: 29.1 µM [cytotoxic, single point]. With `Cn1c(=O)c2c(SCC(=O)N3CCc4ccccc43)nc(-c3cccc(F)c3)nc2n(C)c1=O` the Potency was “inactive”. For `O=C(Nc1ccc2c(c1)CCC2)c1cc2ccccc2o1`, the Potency was inconclusive: 32.6 µM [cytotoxic, single point]. With `CN1c2ccccc2C2(C)CCCC3=Cc4cccc([N+](=O)[O-])c4OC312` (centres undefined) the Potency was inconclusive: 10.3 µM [cytotoxic, partial curve]. For `O=C(CNC(=O)c1ccccc1)NCC(=O)OCC(=O)c1ccc2ccccc2c1`, the Potency was inconclusive: 1.3 µM [rising, full curve]. In the case of `COc1ccc2cc(C(=O)N/N=C/c3sc4ccccc4c3O)ccc2c1`, the Potency was active: 13 µM. With `Cc1cccc(C)c1OCC(O)CN1CCC(CN2C(=O)c3cccc4cccc(c34)C2=O)CC1` (centres undefined) the Potency was active: 20.6 µM. In the case of `O=C(N/N=C/c1ccc(Br)s1)c1cccc([N+](=O)[O-])c1`, the Potency was inconclusive: 25.9 µM [rising, single point]. With `COc1ccc(CCNC(=O)c2cc(S(=O)(=O)N3CCOCC3)ccc2N2CCCC2)cc1OC` the Potency was “inactive”. In the case of `CC1CCc2nc(NC(=O)COc3ccc(C(C)(C)C)cc3)sc2C1` (centres undefined), the Potency was inconclusive: 29.1 µM [cytotoxic, single point]. With `CCCCn1c(N)c(N(CC)C(=O)c2cccs2)c(=O)[nH]c1=O` the Potency was “inactive”. In the case of `CC(C)(C)NC(=O)c1ccc(COc2ccc(Cl)cc2Cl)o1`, the Potency was inconclusive: 29.1 µM [cytotoxic, single point]. For `O=NN(CCCl)C(=O)NCCCl`, the Potency was “inactive”. In the case of `COCC(C)NC(=O)c1cc(-c2ccccc2OC)on1` (centres undefined), the Potency was inconclusive: 11.6 µM [rising, partial curve]. For `Cc1cc(C)c2nc(SCc3ccc([N+](=O)[O-])cc3)nc(C)c2c1`, the Potency was inconclusive: 29.1 µM [cytotoxic, partial curve, poor fit]. For `CC(C)COP(=O)(c1ccc(N(C)C)cc1)C(Nc1ccccc1)c1ccccc1` (centres undefined), the Potency was inconclusive: 29.1 µM [cytotoxic, single point]. With `Cc1nc(CC(=O)c2c(C)cc(O)cc2O)cs1` the Potency was active: 20.6 µM. For `C#CCOC(=O)Nc1cccn(Cc2c(Cl)cccc2Cl)c1=O`, the Potency was active: 10.3 µM. In the case of `O=C(CSCCc1ccccn1)Nc1ccccn1`, the Potency was inconclusive: 0.0082 µM [cytotoxic, full curve, poor fit]. For `COc1cc2c(cc1OC)-c1n[nH]c(=S)n1C(C)(C)C2`, the Potency was “inactive”. With `CCOc1nc(-c2ccc(OC)cc2)ccc1-c1noc(C)n1` the Potency was inconclusive: 14.6 µM [cytotoxic, partial curve]. With `CN(C)N1C(N)=C(C#N)C(c2ccsc2)C2=C1CCCC2=O` (centres undefined) the Potency was “inactive”. With `O=C(Cc1ccc(NC(=O)N2CCSc3ncccc32)cc1)NCc1ccccc1Cl` the Potency was inconclusive: 18.4 µM [cytotoxic, partial curve, poor fit]. With `FC(F)(F)c1nc2ccccc2n2c(-c3ccc(Cl)cc3Cl)nnc12` the Potency was active: 18.4 µM. In the case of `Oc1ccc(N=Nc2nc(-c3ccccc3)c(-c3ccccc3)[nH]2)cc1`, the Potency was inconclusive: 32.6 µM [cytotoxic, single point]. For `CCOc1ccc(S(=O)(=O)Nc2ccc3oc(C)c(C(=O)OCCOC)c3c2)cc1`, the Potency was active: 5.8 µM. In the case of `Cc1ccnc(NC(=O)/C=C/c2cccs2)c1`, the Potency was inconclusive: 25.9 µM [cytotoxic, partial curve, poor fit]. In the case of `O=C(Nc1ccccc1Oc1ccccc1)c1cc([N+](=O)[O-])ccc1Cl`, the Potency was inconclusive: 32.6 µM [cytotoxic, single point]. For `NCCCNc1nc(N)c([N+](=O)[O-])c(NC2CCCCC2)n1`, the Potency was inconclusive: 29.1 µM [cytotoxic, single point]. For `CN(C)C1=NC[C@H](Cc2ccccc2)N1CCCCc1ccccc1`, the Potency was inconclusive: 20.6 µM [cytotoxic, single point]. For `Cc1ccc(C2CC(=O)C=C(NCc3ccccc3)C2)cc1` (centres undefined), the Potency was active: 14.6 µM. In the case of `CCOC(=O)c1ccc(NC(=O)Nc2ccc3c(c2)OCCO3)cc1`, the Potency was inconclusive: 29.1 µM [cytotoxic, single point]. For `Cc1ccccc1NC(=O)C(Cl)=C(Cl)Cl`, the Potency was inconclusive: 23.1 µM [cytotoxic, single point]. In the case of `O=C(CSc1nc2nn(-c3ccccc3)c(=O)c-2c2n1CCCCC2)c1ccc(O)c(O)c1`, the Potency was inconclusive: 20.6 µM [cytotoxic, single point]. In the case of `CCn1ncc2c1C(=O)NC1c3ccccc3C(=O)N21` (centres undefined), the Potency was inconclusive: 6.51 µM [rising, partial curve]. For `COc1ccc(Cl)cc1NS(=O)(=O)c1cc(-c2cc(C)no2)ccc1C`, the Potency was active: 13 µM. In the case of `Cn1cc([N+](=O)[O-])c(C(=O)Nc2ccc(-c3nc4ccccc4o3)cc2)n1`, the Potency was active: 18.4 µM. For `CC(NC(=O)Cn1ncc2c3ccccc3n(Cc3ccc(F)cc3)c2c1=O)c1ccccc1` (centres undefined), the Potency was “inactive”. In the case of `Cc1ccc(-c2csc3ncnc(Sc4nnnn4-c4ccccc4)c23)cc1`, the Potency was inconclusive: 32.6 µM [cytotoxic, partial curve, poor fit]. With `Nc1cc(=O)[nH]c(SCC(=O)Nc2ccccc2Sc2ccc(Cl)cc2)n1` the Potency was inconclusive: 29.1 µM [cytotoxic, partial curve, poor fit]. In the case of `COc1cc(/C=C(\C#N)C(=O)c2c(C)[nH]c3ccccc23)cc(OC)c1OC`, the Potency was inconclusive: 29.1 µM [rising, single point]. For `CCCCOCCCNC(=O)C[C@@H]1C[C@@]2(C(=O)OCC)CCCC=C2N(Cc2cccc3ccccc23)C1=O`, the Potency was inconclusive: 18.4 µM [cytotoxic, single point]. In the case of `COc1cccc(/C=N\NC(=O)Cn2nnc3ccccc32)c1O`, the Potency was inconclusive: 18.4 µM [cytotoxic, single point]. In the case of `O=C(CCNc1cccc(Cl)c1)c1cccs1`, the Potency was inconclusive: 13 µM [rising, partial curve, poor fit]. For `COc1cc2nc(CN(C)Cc3ccc(SC)cc3)[nH]c(=O)c2cc1OC`, the Potency was “inactive”. In the case of `CC1(C(=O)Nc2cccc(OC(F)(F)F)c2)Cc2c(-c3cccc(C(F)(F)F)c3)ccnc2O1` (centres undefined), the Potency was inconclusive: 20.6 µM [cytotoxic, single point]. For `O=C(Cn1cc(C(F)(F)F)ccc1=O)NC1CCCC1`, the Potency was “inactive”. For `COc1ccccc1N1N=C(c2cccs2)CC1c1ccccc1` (centres undefined), the Potency was inconclusive: 29.1 µM [cytotoxic, single point]. With `O=c1c2ccccc2nc(COc2ccccc2)n1/N=C/c1cc([N+](=O)[O-])ccc1O` the Potency was inconclusive: 29.1 µM [cytotoxic, single point]. With `C/C=C/CSc1nc2c(c(=O)[nH]c(=O)n2C)n1CCC` the Potency was inconclusive: 16.4 µM [cytotoxic, partial curve]. With `Cc1ccc(-n2nc3c(=O)n(CCCC(=O)NCc4ccco4)nc(C)c3c2C)cc1` the Potency was inconclusive: 29.1 µM [cytotoxic, single point]. For `O=C(Nc1cccc(C(F)(F)F)c1)Oc1ccc(Cl)c2cccnc12`, the Potency was inconclusive: 16.4 µM [cytotoxic, single point]. With `CCCc1c(C)c2cc(C)ccc2[nH]c1=O` the Potency was inconclusive: 20.6 µM [cytotoxic, single point].
